Patent publication US20050123476A1 (priority 2001, published 2005)
At least one structure is not confirmed: it was looked up by name or label, or the drawing left a doubt.

System: HT1080 cells
Format: cell-based, human

SMILES: CNC(=O)[C@H](Cc1ccccc1)NC(=O)[C@H](CC(C)C)[C@H](CSc1cccs1)C(=O)NO [BB94, Batimastat]
- protection of HT1080 cells against WT-PA plus FP59: did not protect
- protection of HT1080 cells against challenge with PA-L1 and PA-L2 plus FP59: conferred clear protection
